US10029019B1, “Method for mitigating osteoporosis using metallic gold cluster molecules” (priority 2017, dated 2018)
At least one structure is not confirmed: it was looked up by name or label, or the drawing left a doubt.

Test: Body weight and toxicity in collagen induced arthritis mice
Format: in vivo, mouse
Conditions: oral 0.5 mg/kg body weight once a day, FIG. 10

For `C[C@@H]1C[C@H]2[C@@H]3CCC4=CC(=O)C=C[C@]4(C)[C@@]3(F)[C@@H](O)C[C@]2(C)[C@@]1(O)C(=O)CO` [dexamethasone, Dexamethasone], the “body weight loss after collagen immunization” value was “did not reverse the body weight loss”.
